These are yes or no findings as the source states them, for the method shown.
Target: RASSF1A RBD (residues 121–290) (UniProt Q9NS23)
Assay: SEC; analytical gel filtration on Superose 6 10/300 GL, 100 μl of dilution series injected (RBD 1.5-17.5 μM, ∆N 4.5-35 μM, SARAH 1.5-80 μM), 25 mM HEPES pH 7.4, 300 mM NaCl; MBP-tagged constructs; dimer to monomers; both purified

B1: RASSF1A RBD (residues 121–290) (domain or fragment, UniProt Q9NS23-2 121-290)
chain: EPVEWETPDLSQAEIEQKIKEYNAQINSNLFMSLNKDGSYTGFIKVQLKLVRPVSVPSSKKPPSLQDARRGPGRGTSVRRRTSFYLPKDAVKHLHVLSRTRAREVIEALLRKFLVVDDPRKFALFERAERHGQVYLRKLLDDEQPLRLRLLAGPSDKALSFVLKENDSGE
In the case of B1, the binding is reported as “no binding (tested: 1.5-17.5 μM initial concentration)”.

— PMC6447619, “New type of interaction between the SARAH domain of the tumour suppressor RASSF1A and its mitotic kinase Aurora A” (Scientific Reports, 2019)
